From publication PMC4340053, “The DEAH-box Helicase Dhr1 Dissociates U3 from the Pre-rRNA to Promote Formation of the Central Pseudoknot” (PLoS Biology, 2015) come the findings set out here.

Amino acid sequences for entries named in this document (tags omitted).
UniProt Q05022: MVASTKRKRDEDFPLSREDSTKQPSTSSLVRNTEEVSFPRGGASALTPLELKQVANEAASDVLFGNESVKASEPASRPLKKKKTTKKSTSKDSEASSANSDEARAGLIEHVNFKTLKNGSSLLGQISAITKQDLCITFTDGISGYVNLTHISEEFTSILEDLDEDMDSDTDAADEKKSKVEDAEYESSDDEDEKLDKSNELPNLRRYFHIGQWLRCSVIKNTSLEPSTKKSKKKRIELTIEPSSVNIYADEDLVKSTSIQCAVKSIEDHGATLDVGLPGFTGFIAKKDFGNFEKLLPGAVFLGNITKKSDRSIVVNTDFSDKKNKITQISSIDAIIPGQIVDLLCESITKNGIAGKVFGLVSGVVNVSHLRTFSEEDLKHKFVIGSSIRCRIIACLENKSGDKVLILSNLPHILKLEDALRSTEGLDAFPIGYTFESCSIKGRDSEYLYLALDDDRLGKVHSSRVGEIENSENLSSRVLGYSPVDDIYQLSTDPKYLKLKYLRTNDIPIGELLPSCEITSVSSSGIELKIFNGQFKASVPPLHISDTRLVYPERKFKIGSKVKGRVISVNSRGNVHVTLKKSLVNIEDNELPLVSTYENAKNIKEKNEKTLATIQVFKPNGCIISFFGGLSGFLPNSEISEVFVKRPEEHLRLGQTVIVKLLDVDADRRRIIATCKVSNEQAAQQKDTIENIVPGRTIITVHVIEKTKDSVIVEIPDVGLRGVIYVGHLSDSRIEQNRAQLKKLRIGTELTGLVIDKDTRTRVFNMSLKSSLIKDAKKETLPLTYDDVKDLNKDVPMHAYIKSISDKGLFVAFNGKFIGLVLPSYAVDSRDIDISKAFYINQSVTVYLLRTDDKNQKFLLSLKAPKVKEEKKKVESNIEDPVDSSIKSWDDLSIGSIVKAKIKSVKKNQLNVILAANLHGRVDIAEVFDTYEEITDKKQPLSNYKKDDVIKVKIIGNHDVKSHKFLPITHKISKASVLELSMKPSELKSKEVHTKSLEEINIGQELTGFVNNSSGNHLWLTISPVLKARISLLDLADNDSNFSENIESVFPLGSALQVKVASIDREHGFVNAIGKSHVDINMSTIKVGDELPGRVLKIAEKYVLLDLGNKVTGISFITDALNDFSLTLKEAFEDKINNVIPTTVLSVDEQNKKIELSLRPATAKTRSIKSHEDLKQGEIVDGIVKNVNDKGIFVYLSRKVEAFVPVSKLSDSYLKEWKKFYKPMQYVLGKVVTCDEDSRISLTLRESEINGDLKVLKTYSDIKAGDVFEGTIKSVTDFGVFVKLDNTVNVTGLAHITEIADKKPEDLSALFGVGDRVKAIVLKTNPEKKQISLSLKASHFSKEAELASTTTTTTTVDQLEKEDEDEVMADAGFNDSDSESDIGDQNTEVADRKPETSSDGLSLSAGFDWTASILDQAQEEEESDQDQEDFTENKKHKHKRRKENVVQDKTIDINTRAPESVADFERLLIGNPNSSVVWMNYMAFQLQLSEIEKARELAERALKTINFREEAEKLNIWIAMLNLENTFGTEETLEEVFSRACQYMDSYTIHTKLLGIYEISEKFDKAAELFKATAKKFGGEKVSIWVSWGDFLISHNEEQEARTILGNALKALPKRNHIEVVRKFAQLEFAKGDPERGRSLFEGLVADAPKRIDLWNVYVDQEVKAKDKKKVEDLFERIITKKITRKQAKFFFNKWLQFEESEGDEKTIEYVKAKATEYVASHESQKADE
UniProt P15646: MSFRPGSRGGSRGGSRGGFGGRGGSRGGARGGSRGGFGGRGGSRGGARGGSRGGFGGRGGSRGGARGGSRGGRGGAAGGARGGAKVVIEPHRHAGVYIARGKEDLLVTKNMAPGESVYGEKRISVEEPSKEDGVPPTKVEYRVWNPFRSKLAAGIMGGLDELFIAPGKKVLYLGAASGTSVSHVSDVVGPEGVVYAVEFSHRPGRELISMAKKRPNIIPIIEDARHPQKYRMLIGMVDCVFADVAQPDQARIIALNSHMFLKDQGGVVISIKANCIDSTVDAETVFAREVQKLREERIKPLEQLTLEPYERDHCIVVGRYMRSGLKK
UniProt P0CX29: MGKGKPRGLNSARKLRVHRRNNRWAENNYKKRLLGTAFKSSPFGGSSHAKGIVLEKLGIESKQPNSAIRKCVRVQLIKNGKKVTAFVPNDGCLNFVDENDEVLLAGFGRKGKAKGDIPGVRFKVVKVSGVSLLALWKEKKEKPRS
UniProt Q12499: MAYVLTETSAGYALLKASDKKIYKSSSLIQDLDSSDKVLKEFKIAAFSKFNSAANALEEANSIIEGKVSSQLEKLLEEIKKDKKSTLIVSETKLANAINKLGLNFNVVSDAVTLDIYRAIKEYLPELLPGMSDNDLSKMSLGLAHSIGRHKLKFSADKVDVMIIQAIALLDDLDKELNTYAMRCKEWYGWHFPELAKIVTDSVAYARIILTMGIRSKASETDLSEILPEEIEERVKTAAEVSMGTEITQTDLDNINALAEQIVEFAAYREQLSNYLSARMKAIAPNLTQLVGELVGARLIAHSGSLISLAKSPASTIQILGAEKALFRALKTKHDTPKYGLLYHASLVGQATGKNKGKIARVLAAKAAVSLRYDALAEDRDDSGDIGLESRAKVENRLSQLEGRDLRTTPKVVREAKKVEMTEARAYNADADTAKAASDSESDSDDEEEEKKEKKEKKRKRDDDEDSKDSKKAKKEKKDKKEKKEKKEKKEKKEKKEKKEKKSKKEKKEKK
UniProt Q12460: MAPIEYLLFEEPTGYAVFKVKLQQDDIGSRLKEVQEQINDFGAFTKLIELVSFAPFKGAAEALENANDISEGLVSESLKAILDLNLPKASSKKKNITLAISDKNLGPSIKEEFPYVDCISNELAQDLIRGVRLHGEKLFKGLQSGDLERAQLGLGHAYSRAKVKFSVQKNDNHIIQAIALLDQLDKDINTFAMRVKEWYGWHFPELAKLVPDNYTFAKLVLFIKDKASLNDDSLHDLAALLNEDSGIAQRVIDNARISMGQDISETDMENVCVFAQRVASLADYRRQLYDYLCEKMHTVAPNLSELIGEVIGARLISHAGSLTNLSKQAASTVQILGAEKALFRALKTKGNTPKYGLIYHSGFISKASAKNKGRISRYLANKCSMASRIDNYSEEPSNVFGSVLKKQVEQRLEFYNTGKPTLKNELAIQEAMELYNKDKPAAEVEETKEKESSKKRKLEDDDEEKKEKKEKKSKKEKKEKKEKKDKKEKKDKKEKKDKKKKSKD

Results are given in words; binding and its absence hold for the method and conditions named. Binding seen in cells or lysates may run through a third protein. Here binding means that the protein was enriched with, or labelled near, the bait; the list need not be complete. No binding means not detected with the bait. Tags and fused reporters may be left off the sequences shown.

T1: Dhr1_(K420A)-TEV-13myc (S. cerevisiae) (UniProt Q04217)
T1 sequence: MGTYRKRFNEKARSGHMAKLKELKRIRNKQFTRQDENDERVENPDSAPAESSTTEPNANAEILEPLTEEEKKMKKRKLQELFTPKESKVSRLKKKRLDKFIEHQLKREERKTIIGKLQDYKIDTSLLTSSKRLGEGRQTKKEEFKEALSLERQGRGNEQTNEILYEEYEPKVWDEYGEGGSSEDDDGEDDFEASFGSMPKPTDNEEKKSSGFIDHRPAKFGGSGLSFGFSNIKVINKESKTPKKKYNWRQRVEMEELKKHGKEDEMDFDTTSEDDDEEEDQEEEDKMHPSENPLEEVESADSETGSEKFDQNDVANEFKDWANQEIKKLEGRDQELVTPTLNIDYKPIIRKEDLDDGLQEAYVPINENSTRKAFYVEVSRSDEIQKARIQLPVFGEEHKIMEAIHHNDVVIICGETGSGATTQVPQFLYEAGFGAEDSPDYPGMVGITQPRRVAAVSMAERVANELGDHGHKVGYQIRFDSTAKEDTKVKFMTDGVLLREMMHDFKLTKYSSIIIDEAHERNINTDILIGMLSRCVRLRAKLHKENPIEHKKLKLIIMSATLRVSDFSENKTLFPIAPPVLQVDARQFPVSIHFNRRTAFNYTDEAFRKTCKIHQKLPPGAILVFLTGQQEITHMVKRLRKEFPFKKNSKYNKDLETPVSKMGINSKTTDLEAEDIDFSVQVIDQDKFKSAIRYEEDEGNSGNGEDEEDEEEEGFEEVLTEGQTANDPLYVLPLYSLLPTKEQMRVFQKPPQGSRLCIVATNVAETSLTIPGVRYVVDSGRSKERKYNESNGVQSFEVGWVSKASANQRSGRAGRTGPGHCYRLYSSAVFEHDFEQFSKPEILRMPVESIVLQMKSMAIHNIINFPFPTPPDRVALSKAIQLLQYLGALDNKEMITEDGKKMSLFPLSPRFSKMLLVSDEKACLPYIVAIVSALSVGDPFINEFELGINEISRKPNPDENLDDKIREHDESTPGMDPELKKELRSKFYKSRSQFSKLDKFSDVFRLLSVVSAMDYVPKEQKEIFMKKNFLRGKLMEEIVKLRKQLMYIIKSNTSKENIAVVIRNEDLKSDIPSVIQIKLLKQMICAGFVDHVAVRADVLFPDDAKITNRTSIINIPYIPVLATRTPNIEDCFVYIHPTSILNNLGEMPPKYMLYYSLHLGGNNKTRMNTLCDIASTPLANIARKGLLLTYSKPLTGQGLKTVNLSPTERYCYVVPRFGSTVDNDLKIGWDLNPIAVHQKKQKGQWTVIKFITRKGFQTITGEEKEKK

B1: Rps3 (uS3) (protein, UniProt P05750 1-240)
chain: MVALISKKRKLVADGVFYAELNEFFTRELAEEGYSGVEVRVTPTKTEVIIRATRTQDVLGENGRRINELTLLVQKRFKYAPGTIVLYAERVQDRGLSAVAQAESMKFKLLNGLAIRRAAYGVVRYVMESGAKGCEVVVSGKLRAARAKAMKFADGFLIHSGQPVNDFIDTATRHVLMRQGVLGIKVKIMRDPAKSRTGPKALPDAVTIIEPKEEEPILAPSVKDYRPAEETEAQAEPVEA
B2: Imp4 (protein, UniProt P53941 1-290)
chain: MLRRQARERREYLYRKAQELQDSQLQQKRQIIKQALAQGKPLPKELAEDESLQKDFRYDQSLKESEEADDLQVDDEYAATSGIMDPRIIVTTSRDPSTRLSQFAKEIKLLFPNAVRLNRGNYVMPNLVDACKKSGTTDLVVLHEHRGVPTSLTISHFPHGPTAQFSLHNVVMRHDIINAGNQSEVNPHLIFDNFTTALGKRVVCILKHLFNAGPKKDSERVITFANRGDFISVRQHVYVRTREGVEIAEVGPRFEMRLFELRLGTLENKDADVEWQLRRFIRTANKKDYL
B3: Mpp10 (protein, UniProt P47083 1-593)
chain: MSELFGVLKSNAGRIILKDPSATSKDVKAYIDSVINTCKNGSITKKAELDEITVDGLDANQVWWQVKLVLDSIDGDLIQGIQELKDVVTPSHNLSDGSTLNSSSGEESELEEAESVFKEKQMLSADVSEIEEQSNDSLSENDEEPSMDDEKTSAEAAREEFAEEKRISSGQDERHSSPDPYGINDKFFDLEKFNRDTLAAEDSNEASEGSEDEDIDYFQDMPSDDEEEEAIYYEDFFDKPTKEPVKKHSDVKDPKEDEELDEEEHDSAMDKVKLDLFADEEDEPNAEGVGEASDKNLSSFEKQQIEIRKQIEQLENEAVAEKKWSLKGEVKAKDRPEDALLTEELEFDRTAKPVPVITSEVTESLEDMIRRRIQDSNFDDLQRRTLLDITRKSQRPQFELSDVKSSKSLAEIYEDDYTRAEDESALSEELQKAHSEISELYANLVYKLDVLSSVHFVPKPASTSLEIRVETPTISMEDAQPLYMSNASSLAPQEIYNVGKAEKDGEIRLKNGVAMSKEELTREDKNRLRRALKRKRSKANLPNVNKRSKRNDVVDTLSKAKNITVINQKGEKKDVSGKTKKSRSGPDSTNIKL
B4: Rps2 (uS5) (protein, UniProt P25443 1-254)
chain: MSAPEAQQQKRGGFGGRNRGRPNRRGPRNTEEKGWVPVTKLGRLVKAGKITTIEEIFLHSLPVKEFQIIDTLLPGLQDEVMNIKPVQKQTRAGQRTRFKAVVVVGDSNGHVGLGIKTAKEVAGAIRAGIIIAKLSVIPIRRGYWGTNLGQPHSLATKTTGKCGSVTVRLIPAPRGSGIVASPAVKKLLQLAGVEDVYTQSNGKTRTLENTLKAAFVAIGNTYGFLTPNLWAEQPLPVSPLDIYSDEASAQKKRF
B5: Ltv1 (protein, UniProt P34078 1-463)
chain: MSKKFSSKNSQRYVVVHRPHDDPSFYDTDASAHVLVPVSNPNKTSPEADLRKKDVSSTKPKGRRAHVGEAALYGINFDDSEYDYTQHLKPIGLDPENSIFIASKGNEQKVEKKNIEDLFIEPKYRRDEIEKDDALPVFQRGMAKPEYLLHQQDTTDEIRGFKPDMNPALREVLEALEDEAYVVNDDVVVEDISKKTQLQGDNYGEEEKEDDIFAQLLGSGEAKDEDEFEDEFDEWDIDNVENFEDENYVKEMAQFDNIENLEDLENIDYQADVRRFQKDNSILEKHNSDDEFSNAGLDSVNPSEEEDVLGELPSIQDKSKTGKKKRKSRQKKGAMSDVSGFSMSSSAIARTETMTVLDDQYDQIINGYENYEEELEEDEEQNYQPFDMSAERSDFESMLDDFLDNYELESGGRKLAKKDKEIERLKEAADEVSKGKLSQRRNRERQEKKKLEKVTNTLSSLKF
B6: GTPase Bms1 (protein, UniProt Q08965 1-1183)
chain: MEQSNKQHRKAKEKNTAKKKLHTQGHNAKAFAVAAPGKMARTMQRSSDVNERKLHVPMVDRTPEDDPPPFIVAVVGPPGTGKTTLIRSLVRRMTKSTLNDIQGPITVVSGKHRRLTFLECPADDLNAMIDIAKIADLVLLLIDGNFGFEMETMEFLNIAQHHGMPRVLGVATHLDLFKSQSTLRASKKRLKHRFWTEVYQGAKLFYLSGVINGRYPDREILNLSRFISVMKFRPLKWRNEHPYMLADRFTDLTHPELIETQGLQIDRKVAIYGYLHGTPLPSAPGTRVHIAGVGDFSVAQIEKLPDPCPTPFYQQKLDDFEREKMKEEAKANGEITTASTTRRRKRLDDKDKLIYAPMSDVGGVLMDKDAVYIDIGKKNEEPSFVPGQERGEGEKLMTGLQSVEQSIAEKFDGVGLQLFSNGTELHEVADHEGMDVESGEESIEDDEGKSKGRTSLRKPRIYGKPVQEEDADIDNLPSDEEPYTNDDDVQDSEPRMVEIDFNNTGEQGAEKLALETDSEFEESEDEFSWERTAANKLKKTESKKRTWNIGKLIYMDNISPEECIRRWRGEDDDSKDESDIEEDVDDDFFRKKDGTVTKEGNKDHAVDLEKFVPYFDTFEKLAKKWKSVDAIKERFLGAGILGNDNKTKSDSNEGGEELYGDFEDLEDGNPSEQAEDNSDKESEDEDENEDTNGDDDNSFTNFDAEEKKDLTMEQEREMNAAKKEKLRAQFEIEEGENFKEDDENNEYDTWYELQKAKISKQLEINNIEYQEMTPEQRQRIEGFKAGSYVRIVFEKVPMEFVKNFNPKFPIVMGGLLPTEIKFGIVKARLRRHRWHKKILKTNDPLVLSLGWRRFQTLPIYTTTDSRTRTRMLKYTPEHTYCNAAFYGPLCSPNTPFCGVQIVANSDTGNGFRIAATGIVEEIDVNIEIVKKLKLVGFPYKIFKNTAFIKDMFSSAMEVARFEGAQIKTVSGIRGEIKRALSKPEGHYRAAFEDKILMSDIVILRSWYPVRVKKFYNPVTSLLLKEKTEWKGLRLTGQIRAAMNLETPSNPDSAYHKIERVERHFNGLKVPKAVQKELPFKSQIHQMKPQKKKTYMAKRAVVLGGDEKKARSFIQKVLTISKAKDSKRKEQKASQRKERLKKLAKMEEEKSQRDKEKKKEYFAQNGKRTTMGGDDESRPRKMRR
B7: putative A2 endonuclease Rcl1 (protein, UniProt Q08096 1-367)
chain: MSSSAPKYTTFQGSQNFRLRIVLATLSGKPIKIEKIRSGDLNPGLKDYEVSFLRLIESVTNGSVIEISYTGTTVIYRPGIIVGGASTHICPSSKPVGYFVEPMLYLAPFSKKKFSILFKGITASHNDAGIEAIKWGLMPVMEKFGVRECALHTLKRGSPPLGGGEVHLVVDSLIAQPITMHEIDRPIISSITGVAYSTRVSPSLVNRMIDGAKKVLKNLQCEVNITADVWRGENSGKSPGWGITLVAQSKQKGWSYFAEDIGDAGSIPEELGEKVACQLLEEISKSAAVGRNQLPLAIVYMVIGKEDIGRLRINKEQIDERFIILLRDIKKIFNTEVFLKPVDEADNEDMIATIKGIGFTNTSKKIA
B8: Imp3 (protein, UniProt P32899 1-183)
chain: MVRKLKHHEQKLLKKVDFLEWKQDQGHRDTQVMRTYHIQNREDYHKYNRICGDIRRLANKLSLLPPTDPFRRKHEQLLLDKLYAMGVLTTKSKISDLENKVTVSAICRRRLPVIMHRLKMAETIQDAVKFIEQGHVRVGPNLINDPAYLVTRNMEDYVTWVDNSKIKKTLLRYRNQIDDFDFS

This assay concerns the target T1, Dhr1_(K420A)-TEV-13myc (S. cerevisiae). As to the kind of experiment: affinity purification with mass spectrometry; Dhr1_(K420A)-TEV-13myc particle immunoprecipitated from yeast extract with anti-myc antibody on Protein-G magnetic beads (IP buffer 100 mM NaCl, 50 mM Tris-HCl pH 7.5, 1.5 mM MgCl2, 0.15% NP40), released with TEV at 16°C, pelleted through a 15% sucrose cushion, in-gel trypsin digestion, LTQ-Orbitrap; untagged Dhr1_(K420A) as mock.
On to Rrp5 (from UniProt Q05022 1-1729), for which the binding result was “binds”.

In the case of Nop1 (from UniProt P15646 1-327), the binding result is on record as “binds”.

In the case of “Rps23 (uS12) (from UniProt P0CX29 1-145)”, the binding entry is given as “no binding”.

In the case of Nop58 (from UniProt Q12499 1-511), the binding entry is “binds”.

For the molecule Nop56 (from UniProt Q12460 1-504), the binding result was “binds”.

On to B1, for which the binding result is on record as “no binding”.

As for B2, the binding entry was “binds”.

On to B3, for which the binding result is reported as “binds”.

In the case of B4, the binding result is on record as “no binding”.

For the molecule B5, the binding result was “no binding”.

On to B6, for which the binding entry is reported as “binds”.

Take B7: the binding result is recorded as “binds”.

On to B8, for which the binding result is on record as “binds”.
